Test [1] deals with Aβ-precursor protein (APP), wild type, from APP^wt/wt mouse brain (mouse (endogenous in mouse brain)) (UniProt P12023). The test is described as follows: co-IP; IP with monoclonal anti-APP from membrane enriched mouse brain fraction (500 ug membrane protein; IP buffer 20 mM Hepes pH 8.0, 10% glycerol, 137 mM NaCl, 0.5% Triton-X-100, 2 mM EDTA; protein A/G, overnight), blot for Fe65; APP^wt/wt, APP^YG/YG and APP^-/- mice.

Test [2] addresses APP Y682G, from APP^YG/YG knock-in mouse brain (mouse (endogenous in mouse brain)) (UniProt P12023). Described as above.

These are yes or no findings as the source states them, for the method shown. Binding seen in cells or lysates may run through a third protein. Some entries that bind do so weakly or less than the wild type.

B1: Fe65 (protein, UniProt Q9QXJ1 1-710)
chain: MSVPSSLSQSAINANSHGGPALSFPLPLHAAHNQLLNAKLQATAVVPKDLRSAMGEGSVPEPGPANAKWLKEGQNQLRRAATAHRDQNRNVTLTLAEEASQEAETAPLGPKGLMHLYSELELSAHNAANRGLHGSALIINTQEQGPDEGEEKAAGEAEEDDEDEEEEEEEEDLSSPPGLPEPLENVEVPSGPQALTDGPREHSKSASLLFGMRNSAASDEDSSWATLSQGSPSYGSPEDTDSFWNPNAFETDSDLPAGWMRVQDTSGTYYWHIPTGTTQWEPPGRASPSQGSSPQEESQLTWTGFAHQEGFEEGEFWKDEPSEEAPMELGLKDPEEATLSFPAQSLSPEPVPQEEEKLSQRNANPGIKCFAVRSLGWVEMTEEELAPGRSSVAVNNCIRQLSYHKNNLHDPMAGGWGEGKDLLLQLEDETLKLVEPQNQTLLHAQPIVSIRVWGVGRDSGSNRDFAYVARDKLTQMLKCHVFRCEAPAKNIATSLHEICSKIMSERRNARCLVNGLSLDHSKLVDVPFQVEFPAPKNELVQKFQVYYLGNVPVAKPVGVDVINGALESVLSSSSREQWTPSHVSVAPATLTILHQQTEAVLGECRVRFLSFLAVGRDVHTFAFIMAAGPASFCCHMFWCEPNAASLSEAVQAACMLRYQKCLDARSQTSTSCLPAPPAESVARRVGWTVRRGVQSLWGSLKPKRLGSQTP
In the case of B1, the binding result in test [1] is given as “binds”; in test [2], “no binding”.
